Like-named read-outs stand apart in the source and are kept apart here. At least one structure is not confirmed: it was looked up by name or label, or the drawing left a doubt.
Key:
[1] = system: LDH; assay: Substrate for lactic acid dehydrogenase; type: biochemical
From the text: With that, overcoming the initial deficit imposed by PD toxins such as MPP+ are possible with non-glucose intermediates that are capable of sustaining ATP production through substrate level phosphorylation. These compounds should protect against cell death by MPP+, herein also classified under “ANAEROBIC (+)”. […] Agents capable of mediating positive effects on PK/LDH should in theory offset the metabolic vulnerability imposed by the rise in lactate/pyruvate, nicotinamide adenine dinucleotide (NAD)/nicotinamide adenine dinucleotide reduced (NADH) and NADP/NADPH ratios that occur during hypoglycemia and neurological damage (Auer RN. Metab Brain Dis. 2004 December; 19(3-4):169-75). For this reason, the first component and the base of this nutraceutical formulation are one or more of PYRUVIC ACID (*) (PY), […] ACID (SA)* and OXALOACETATE (*) (OA) as well as their corresponding molecular derivatives, analogues, esters or salts. […] On the other hand, PY can readily enter the brain, serve as a useful substrate for glycolysis, the Krebs cycle and the GABA shunt (Gonzalez et al., J Neurochem. 2005 October; 95(1):284-93) with capability to protect ergogenic failure associated with ischemic stroke and heart disease (Lee et al., J Neurosci. 2001 Oct. 15; 21(20):RC171; Hermann et al., Eur J Heart Fail. 2004 Mar. 1; 6(2):213-8).

[2] = system: 6-OHDA toxicity; assay: 6-OHDA toxicity in vitro; type: cell-based

## O=C(O)CC(=O)C(=O)O [OA, OXALOACETATE]
[1]
  substrates for LDH: exceptional substrates for LDH
[2]
  protection against / antagonism of 6-OHDA toxicity: protect
[2]; listed as oxaloacetate
  protection against / antagonism of 6-OHDA toxicity: directly antagonize
